{"source": "PubChem BioAssay AID1159578, Peter MacCallum Cancer Centre, 2015", "purpose": "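Genome-wide hunt for genes controlling movement of lymphatic endothelial cells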 (primary screen)", "system": "human lymphatic endothelial cells", "reagents": "siRNA pool against human genes, 40 nM", "timing": "48 h after transfection", "measured": "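Cells stained with dye and imaged after a scratch; covered wound area and nuclei counted, duplicates averaged, migration set against mock wells and turned into a robust z-score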", "reading the numbers": "migration robust z-score: higher = faster migration into the scratch; nuclei per well: higher = more cells in the well", "rule for the call": "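Migration changed when robust z exceeds 2 or falls below -2 and mean nuclei number is at least 3300; otherwise not called changed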", "meaning of the calls": "active = migration changed; inactive = no migration change, or too few cells", "note": "This is one part, drawn at random, of about 18,000 reagents. About 1,030 of all reagents (5.7%) were called active. 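Inactive calls also include pools with fewer than 3300 nuclei, whose migration was not assessed.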 Raw values vary from plate to plate and are shown uncorrected. Not all columns of the deposit are shown. No sequences are given here."}
{"gene knocked down": "CMTM4 (GeneID 146223)", "migration robust z-score": 1.06, "migration class with cell-count check": "migration z between -2 and 2; enough cells", "nuclei per well, duplicate mean": 6366, "Call": "inactive"}
{"gene knocked down": "MFGE8 (GeneID 4240)", "migration robust z-score": -0.24, "migration class with cell-count check": "migration z between -2 and 2; enough cells", "nuclei per well, duplicate mean": 6734, "Call": "inactive"}
{"gene knocked down": "STMN2 (GeneID 11075)", "migration robust z-score": -0.46, "migration class with cell-count check": "migration z between -2 and 2; enough cells", "nuclei per well, duplicate mean": 5692, "Call": "inactive"}
{"gene knocked down": "ADAM29 (GeneID 11086)", "migration robust z-score": -1.14, "migration class with cell-count check": "migration z between -2 and 2; enough cells", "nuclei per well, duplicate mean": 3973, "Call": "inactive"}

In a second layout: 2 of the entries above
MFGE8 (GeneID 4240)
- migration robust z-score: -0.24
- migration class with cell-count check: migration z between -2 and 2; enough cells
- nuclei per well, duplicate mean: 6734
- Call: inactive

STMN2 (GeneID 11075)
- migration robust z-score: -0.46
- migration class with cell-count check: migration z between -2 and 2; enough cells
- nuclei per well, duplicate mean: 5692
- Call: inactive

The listing continues.
{"gene knocked down": "CRY1 (GeneID 1407)", "migration robust z-score": 0.88, "migration class with cell-count check": "migration z between -2 and 2; enough cells", "nuclei per well, duplicate mean": 5616, "Call": "inactive"}
{"gene knocked down": "CITED1 (GeneID 4435)", "migration robust z-score": 0.18, "migration class with cell-count check": "migration z between -2 and 2; enough cells", "nuclei per well, duplicate mean": 5192, "Call": "inactive"}
{"gene knocked down": "DYNC1I2 (GeneID 1781)", "migration robust z-score": 0.68, "migration class with cell-count check": "migration z between -2 and 2; enough cells", "nuclei per well, duplicate mean": 5826, "Call": "inactive"}
{"gene knocked down": "DHX40 (GeneID 79665)", "migration robust z-score": 0.15, "migration class with cell-count check": "migration z between -2 and 2; enough cells", "nuclei per well, duplicate mean": 3493, "Call": "inactive"}
{"gene knocked down": "PCDHGB3 (GeneID 56102)", "migration robust z-score": 0.58, "migration class with cell-count check": "migration z between -2 and 2; enough cells", "nuclei per well, duplicate mean": 4256, "Call": "inactive"}
{"gene knocked down": "GRIK4 (GeneID 2900)", "migration robust z-score": -1.25, "migration class with cell-count check": "migration z between -2 and 2; enough cells", "nuclei per well, duplicate mean": 5362, "Call": "inactive"}
{"gene knocked down": "RTP4 (GeneID 64108)", "migration robust z-score": 1.68, "migration class with cell-count check": "migration z between -2 and 2; enough cells", "nuclei per well, duplicate mean": 5793, "Call": "inactive"}
{"gene knocked down": "HK3 (GeneID 3101)", "migration robust z-score": 1.15, "migration class with cell-count check": "migration z between -2 and 2; enough cells", "nuclei per well, duplicate mean": 5821, "Call": "inactive"}
{"gene knocked down": "ANO10 (GeneID 55129)", "migration robust z-score": 0.46, "migration class with cell-count check": "migration z between -2 and 2; enough cells", "nuclei per well, duplicate mean": 6238, "Call": "inactive"}
{"gene knocked down": "ATP6V0A4 (GeneID 50617)", "migration robust z-score": -0.48, "migration class with cell-count check": "migration z between -2 and 2; enough cells", "nuclei per well, duplicate mean": 7596, "Call": "inactive"}
